# According to PubChem BioAssay AID493014 (National Center for Advancing Translational Sciences (NCATS), 2011):
# The list shows a part of the results. The main result of the screen is listed elsewhere. These columns were measured beside it and carry no call. Most of these compounds were active or inconclusive in the main read-out, so they are no random draw. Potencies come from curve fits of mixed quality, noted in brackets.
# Assay: qHTS Assay to Find Inhibitors of Chronic Active B-Cell Receptor Signaling
# Conditions: ABC-DLBCL IkBa-CBG/CBR reporter, luminescence ratio (green luciferase fused to IkBa over red control in TMD8 lymphoma cells), 4 h; measured here: CBR red luminescence, cell number
# Summary of the method: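 Doxycycline induced both beetle luciferases in TMD8 lymphoma cells; IKK-driven degradation limits the IkappaBalpha-fused green signal, while red luminescence normalises for cell number and nonspecific effects. Compounds tested up to 46 uM, 4 hrs.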
row,SMILES,AC50
1,COc1ccc2c(CC(=O)NNC(=O)c3ccc(O)cc3)coc2c1,"1.84 µM [falling, single point]"
2,COCC1CCCN(Cc2nc(Cc3ccccc3)no2)C1 (stereo not given),"35.5 µM [rising, single point]"
3,CCOC(=O)C1=C(c2ccccc2)N(C)C(=O)NC1c1ccc(O)c(OC)c1 (stereo not given),"7.94 µM [rising, partial curve, poor fit]"
4,COc1ccc(-[n+]2c(C)cc(/C=C3\Sc4ccccc4N3C)cc2C)cc1,"12.6 µM [falling, partial curve, poor fit]"
5,CC1CC(C)(C)NC(=S)N1CCCC(=O)Nc1ccc2c(c1)OCCO2 (stereo not given),"20 µM [falling, partial curve]"
6,O=[N+]([O-])c1ccc(C(O)CNC(=S)Nc2ccccc2)cc1 (stereo not given),"14.1 µM [rising, single point]"
7,COCCCn1c(=S)[nH]c2c(sc3ccccc32)c1=O,"2.24 µM [falling, full curve]"
8,CC(=O)O[C@]1(C(C)=O)CC[C@H]2[C@@H]3C=C(C)C4=CC(=O)CC[C@]4(C)[C@H]3CC[C@@]21C,"1.26 µM [rising, full curve]"
9,CC(C)C(=O)N1CCC(c2nc(-c3ccc(S(=O)(=O)N4CCN(C)CC4)cc3)no2)CC1,"2 µM [rising, full curve, poor fit]"
10,O=C(CNC(=S)NC(=O)c1ccco1)c1ccccc1,"8.91 µM [falling, partial curve, poor fit]"
11,CCOC(=O)C1=C(CN2CCOCC2)NC(=O)NC1c1cc(C)ccc1C (stereo not given),"23.1 µM [falling, single point]"
12,COc1ccc(OC)c(NC(=O)Nc2ccccc2C)c1,"9.2 µM [falling, single point]"
13,COC(=O)/C=C/c1cnc2ccccc2c1,"7.08 µM [falling, partial curve, poor fit]"
14,Cc1ccc(NC(=O)/C(Cl)=C/c2ccccc2)cc1C,"9.2 µM [falling, partial curve]"
15,Cc1cc(Cl)c2c(c1)[C@]1(C(=O)N2)[C@@H]2C(=O)N(Cc3ccccc3)C(=O)[C@@H]2[C@@H]2CCCN21,"35.5 µM [falling, single point]"
16,O=C(c1cnccn1)N(Cc1ccco1)C1(C(=O)NC2CCCCC2)CCCCC1,"29.1 µM [falling, single point]"
17,Cn1nnnc1SCC(=O)NCc1cc([N+](=O)[O-])ccc1O,"6.31 µM [rising, full curve, poor fit]"
18,COc1ccccc1NC(=O)c1ccc(COc2ccc3c(c2)CCC3)cc1,"6.51 µM [falling, partial curve]"
19,Cc1ccc(/C(N)=N/OC(=O)COc2ccccc2Cl)cc1,"0.731 µM [rising, full curve]"
20,O=C(O)c1ccc(N2N=C(c3ccccc3)CC2c2ccccc2)cc1 (stereo not given),"3.55 µM [falling, full curve]"
21,CN(Cc1ccco1)C(=O)CSc1nn2c(=O)c(C(C)(C)C)nnc2s1,"8.2 µM [falling, single point]"
22,CCCCCn1c(-c2ccco2)nc2nc3ccccc3nc21,"29.1 µM [falling, single point]"

row,SMILES,AC50
1,COc1ccccc1-n1c(SC)nc(O)cc1=O,"0.116 µM [falling, full curve, poor fit]"
2,C[C@H]1CN([C@@H](C)CO)C(=O)c2cccc(NC(=O)c3ccc(-c4nccs4)cc3)c2O[C@@H]1CN(C)C(=O)NC1CCCCC1,"29.1 µM [rising, single point]"
3,NC(=S)c1cc2ccc(O)cc2oc1=O,"1.41 µM [falling, full curve, poor fit]"
4,C/C(N)=C(/C#N)C(=O)CSc1nc2ccccc2n1CC(C)C,"12.6 µM [rising, partial curve, poor fit]"
5,CCCCC(=O)Nc1cnc(NC(=O)c2cccs2)cc1C,"22.4 µM [falling, single point]"
6,Cc1ccc(C)c(C(=O)CSc2nnnn2C(C)C)c1,"0.116 µM [rising, full curve, poor fit]"
7,Clc1cc(Cl)cc(CN2CCSCC2)c1,"5.62 µM [falling, single point]"
8,O=C(Nc1nc(-c2cccs2)c(-c2cccs2)s1)C1CCCC1,"2.31 µM [falling, partial curve, poor fit]"
9,CC(C(=O)Nc1cccc([N+](=O)[O-])c1)N1CCN(C/C=C/c2ccccc2)CC1 (stereo not given),"29.1 µM [falling, single point]"
10,Cc1ccc(Cl)cc1N1CCN(Cc2nc3c(c(=O)[nH]c(=O)n3C)n2CCc2ccccc2)CC1,"29.1 µM [rising, partial curve, poor fit]"
11,COc1ccc(-c2noc(CN(C)Cc3ccccc3)n2)cc1,"35.5 µM [rising, single point]"
12,Cc1cc(C)c2c(NC(=O)CCl)nn(C)c2n1,"12.6 µM [falling, single point]"
13,CN(C)C1(CNC(=O)Nc2ccccc2)CCCCC1,"12.6 µM [rising, partial curve, poor fit]"
14,OC(CNC1CCCCC1)CNC1CCCCC1,"35.5 µM [falling, single point]"
15,N#Cc1nc(-c2ccccc2)oc1NCC1CCCO1 (stereo not given),"7.31 µM [rising, partial curve, poor fit]"
16,Cn1c(=O)cc(SCC(=O)NCC2CCCO2)c2ccccc21 (stereo not given),"11.2 µM [rising, partial curve, poor fit]"
17,CCN(CC)S(=O)(=O)c1ccc(C)c(NC(=S)N2CCN(Cc3ccc4c(c3)OCO4)CC2)c1,"17.8 µM [falling, single point]"
18,O=C(CSc1nnc(COc2ccccc2)o1)NC1CC2CCC1C2 (stereo not given),"35.5 µM [rising, partial curve, poor fit]"
19,CC1(C)Cc2c(c(N3CCCC3)nc3sc4c(N5CCNCC5)ncnc4c23)CO1,"6.31 µM [rising, partial curve, poor fit]"
20,CCNc1nc(NCC)nc(N/N=C/c2ccc([N+](=O)[O-])o2)n1,"18.4 µM [rising, partial curve, poor fit]"
21,COc1cccc(C2/C(=C(/O)c3cnn(-c4ccccc4)c3C)C(=O)C(=O)N2CCN(C)C)c1 (stereo not given),"4.61 µM [rising, full curve, poor fit]"
22,CN(CCC#N)C(=O)COC(=O)c1cccnc1Nc1ccccc1F,"11.2 µM [falling, partial curve]"

row,SMILES,AC50
1,COc1ccc(C2=CC(=O)OC3(CCCCC3)O2)cc1,"20 µM [rising, partial curve, poor fit]"
2,O=C(COc1ccc(Br)cc1Br)NC(=S)Nc1cccc(CO)c1,"14.6 µM [rising, partial curve]"
3,CCN(C(=O)COC(=O)c1nc(Cl)ccc1Cl)C1CCS(=O)(=O)C1 (stereo not given),"20.6 µM [falling, partial curve, poor fit]"
4,Cc1cc(C(=O)N/N=C/c2c(C)nn(-c3ccccc3)c2C)c(C)o1,"3.55 µM [falling, partial curve, poor fit]"
5,CCCn1c(SCC(=O)Nc2nc(C)c(C(=O)OC)s2)nnc1C(C)C,"1.78 µM [falling, partial curve]"
6,C#Cc1ccc(CN2CCCC(C(=O)Nc3ccccc3Oc3cccnc3)C2)cc1 (stereo not given),"17.8 µM [falling, single point]"
7,Cc1nnc(N/N=C/c2cccs2)[nH]c1=O,"7.08 µM [falling, partial curve, poor fit]"
8,O=C1CC2(CCN(C(=O)c3ccccc3Cl)CC2)Oc2ccccc21,"5.8 µM [falling, partial curve, poor fit]"
9,CCO[C@H]1OC(C(=O)NCc2ccccc2)=C[C@@H](c2coc3ccccc3c2=O)[C@@H]1CCCO,"0.1 µM [falling, full curve, poor fit]"
10,N#Cc1cccc(Cn2nnc(-c3ccccc3)n2)c1,"13 µM [rising, partial curve]"
11,Cc1[nH][nH]c(=O)c1C,"2.59 µM [rising, full curve, poor fit]"
12,CC(C)Cc1cc(-c2ccco2)c(C#N)c(N)n1,"12.6 µM [rising, partial curve, poor fit]"
13,CC(C)Cc1nnc(NC(=O)CSc2ncn[nH]2)s1,"14.6 µM [falling, single point]"
14,Cc1ccc(NC(=O)C2CCN(S(=O)(=O)c3ccc4c(c3)CC(C)N4C(=O)C3CCC3)CC2)nc1 (stereo not given),"14.1 µM [falling, partial curve, poor fit]"
15,COc1ccc(OC)c(NC(=O)N2CCCc3ccccc32)c1,"0.562 µM [falling, full curve, poor fit]"
16,CCOC(=O)N1CCN(C(=O)COC(=O)CNC(=O)c2ccc(C)cc2)CC1,"7.31 µM [rising, partial curve]"
17,O=C1OCCC1Sc1nc(-c2ccccc2)cs1 (stereo not given),"29.1 µM [rising, single point]"
18,O=C(NNC(=O)C1CC1c1ccccc1)Nc1ccccc1 (stereo not given),"29.1 µM [rising, single point]"
19,Cc1noc(NS(=O)(=O)c2ccc(NC(=O)/C=C/c3ccccc3)cc2)c1C,"5.17 µM [falling, partial curve, poor fit]"
20,COc1cccc(C2/C(=C(/O)c3ccccc3)C(=O)C(=O)N2CCCC(=O)O)c1 (stereo not given),"20 µM [rising, single point]"
21,Cc1nc([N+](=O)[O-])c(N2CCOCC2)n1Cc1ccccc1,"10 µM [falling, partial curve, poor fit]"

# For reference, some entries already given:
row,SMILES,AC50
11,Cc1[nH][nH]c(=O)c1C,"2.59 µM [rising, full curve, poor fit]"
12,CC(C)Cc1cc(-c2ccco2)c(C#N)c(N)n1,"12.6 µM [rising, partial curve, poor fit]"
